Reference: publication PMC11655347
No constants are given. Whether binding was seen depends on the method and setting. Binding seen in cells or lysates may run through a third protein. Some binding calls cover weakened binding; strength is not graded here.

By UniProt entry, the sequences of proteins in these tests, tags left out.
UniProt Q15910: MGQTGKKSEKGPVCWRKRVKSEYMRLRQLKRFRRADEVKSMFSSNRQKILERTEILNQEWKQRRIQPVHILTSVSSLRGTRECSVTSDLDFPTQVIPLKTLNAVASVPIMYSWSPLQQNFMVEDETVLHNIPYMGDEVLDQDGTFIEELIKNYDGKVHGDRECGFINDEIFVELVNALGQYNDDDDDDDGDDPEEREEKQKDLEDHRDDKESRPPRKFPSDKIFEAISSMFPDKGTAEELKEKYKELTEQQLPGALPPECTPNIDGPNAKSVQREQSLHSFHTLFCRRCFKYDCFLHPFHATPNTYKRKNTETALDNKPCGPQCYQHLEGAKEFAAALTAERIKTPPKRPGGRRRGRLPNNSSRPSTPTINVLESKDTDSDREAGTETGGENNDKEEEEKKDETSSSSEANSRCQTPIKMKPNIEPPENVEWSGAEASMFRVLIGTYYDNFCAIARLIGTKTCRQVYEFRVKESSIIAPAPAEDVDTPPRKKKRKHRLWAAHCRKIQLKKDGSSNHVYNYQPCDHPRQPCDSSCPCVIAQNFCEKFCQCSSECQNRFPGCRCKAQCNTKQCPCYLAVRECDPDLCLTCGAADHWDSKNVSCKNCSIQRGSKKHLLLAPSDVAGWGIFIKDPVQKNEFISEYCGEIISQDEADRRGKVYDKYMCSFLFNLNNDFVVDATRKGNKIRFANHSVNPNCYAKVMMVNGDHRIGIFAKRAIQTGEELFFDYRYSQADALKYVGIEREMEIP
UniProt O75530: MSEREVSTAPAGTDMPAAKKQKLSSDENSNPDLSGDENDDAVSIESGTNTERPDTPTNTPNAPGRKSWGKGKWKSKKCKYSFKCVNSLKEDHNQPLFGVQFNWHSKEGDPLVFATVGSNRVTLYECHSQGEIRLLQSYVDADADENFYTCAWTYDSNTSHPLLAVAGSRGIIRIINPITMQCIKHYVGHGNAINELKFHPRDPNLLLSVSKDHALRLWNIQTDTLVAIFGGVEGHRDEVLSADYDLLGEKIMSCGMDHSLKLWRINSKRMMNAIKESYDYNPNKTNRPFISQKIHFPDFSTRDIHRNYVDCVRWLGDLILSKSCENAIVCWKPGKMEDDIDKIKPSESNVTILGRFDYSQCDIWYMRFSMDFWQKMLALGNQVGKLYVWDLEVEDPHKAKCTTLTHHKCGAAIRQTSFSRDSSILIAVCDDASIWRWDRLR
UniProt Q6PIY5: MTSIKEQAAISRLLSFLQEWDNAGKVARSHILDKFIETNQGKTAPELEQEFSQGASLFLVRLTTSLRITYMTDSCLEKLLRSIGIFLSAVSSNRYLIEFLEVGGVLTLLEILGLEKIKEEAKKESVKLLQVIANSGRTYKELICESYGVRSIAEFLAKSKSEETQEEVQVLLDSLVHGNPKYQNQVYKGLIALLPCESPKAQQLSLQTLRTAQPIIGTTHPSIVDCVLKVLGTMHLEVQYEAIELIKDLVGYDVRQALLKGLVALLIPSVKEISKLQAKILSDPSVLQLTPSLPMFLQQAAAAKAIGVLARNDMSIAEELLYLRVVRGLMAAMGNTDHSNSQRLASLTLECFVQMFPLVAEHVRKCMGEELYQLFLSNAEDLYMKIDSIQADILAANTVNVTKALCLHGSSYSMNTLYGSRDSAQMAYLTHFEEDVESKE

Assays:
[1] = biological target: enhancer of zeste homolog 2 (EZH2) (human (endogenous in MOLM14 and Kasumi-1)) (UniProt Q15910); assay: co-IP; endogenous proteins from MOLM14 and Kasumi-1 cell extracts; EZH2 or EED antibody on protein G, incubated with pre-cleared lysate in RIPA buffer overnight at 4C, washed twice with cold PBS; western blot with EZH2, EED and ARMH1 antibodies
[2] = biological target: Embryonic Ectoderm Development (EED) (human (endogenous in MOLM14 and Kasumi-1)) (UniProt O75530); assay: as above

For “Armadillo-like helical domain containing protein 1 (ARMH1) (from UniProt Q6PIY5 1-440)”, the binding [1] was “binds” and the binding [2] was “binds”.
